Results are given in words; binding and its absence hold for the method and conditions named. In cells and extracts the contact can be indirect. Here binding means that the protein was enriched with, or labelled near, the bait; the list need not be complete. Where a sequence is shown, tags or fusion partners need not be part of it.
Target: T1, 3xFLAG-tagged NCOA7-AS, stably expressed in U87-MG cells (human) (UniProt Q8NI08)
T1 sequence: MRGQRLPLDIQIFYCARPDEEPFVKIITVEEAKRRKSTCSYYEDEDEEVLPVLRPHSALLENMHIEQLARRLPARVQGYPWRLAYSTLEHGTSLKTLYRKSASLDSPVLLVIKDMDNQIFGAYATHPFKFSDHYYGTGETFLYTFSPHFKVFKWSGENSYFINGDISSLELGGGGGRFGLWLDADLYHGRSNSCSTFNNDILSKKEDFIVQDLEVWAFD
Assay: affinity purification with mass spectrometry; 3xFLAG-NCOA7-AS stably expressed in U87-MG cells, FLAG immunoprecipitation, complexes analysed by mass spectrometry against a control immunoprecipitation; three independent experiments

Protein sequences, listed by entry. Tags and fused reporters are not part of them.
UniProt Q13596: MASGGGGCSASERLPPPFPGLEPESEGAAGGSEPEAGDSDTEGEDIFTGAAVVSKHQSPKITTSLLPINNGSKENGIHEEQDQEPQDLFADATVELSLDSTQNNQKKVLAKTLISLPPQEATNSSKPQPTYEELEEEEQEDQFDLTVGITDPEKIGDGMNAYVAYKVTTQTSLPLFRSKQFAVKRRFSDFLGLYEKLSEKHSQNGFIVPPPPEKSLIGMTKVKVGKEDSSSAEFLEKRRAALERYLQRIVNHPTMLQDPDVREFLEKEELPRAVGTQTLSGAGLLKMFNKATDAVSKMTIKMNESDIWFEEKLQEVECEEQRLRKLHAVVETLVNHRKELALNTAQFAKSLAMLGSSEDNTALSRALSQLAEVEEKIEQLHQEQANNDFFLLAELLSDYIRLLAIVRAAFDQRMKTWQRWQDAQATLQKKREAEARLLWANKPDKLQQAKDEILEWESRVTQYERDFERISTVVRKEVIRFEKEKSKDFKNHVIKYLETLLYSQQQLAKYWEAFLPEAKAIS

sorting nexin 1 (SNX1), endogenous in U87-MG cells (from UniProt Q13596 1-522)
binding: binds

— article PMC13543948, “SNX-BAR proteins 5 and 6 are required for NCOA7-AS antiviral activity against influenza A virus” (The Journal of Biological Chemistry, 2026)
